Here are results for two molecules from patent CN115232210A.

By UniProt entry, the sequences of proteins in these tests, tags left out. Where a name states a change or a piece, a line headed by the entry shows the natural chain unless it says otherwise. Chains listed by the source or under a name are the forms on record and can include a tag or linker.
HEK293T细胞表达的猴CD40 (猴 (cyno)) (G7PG38, form named): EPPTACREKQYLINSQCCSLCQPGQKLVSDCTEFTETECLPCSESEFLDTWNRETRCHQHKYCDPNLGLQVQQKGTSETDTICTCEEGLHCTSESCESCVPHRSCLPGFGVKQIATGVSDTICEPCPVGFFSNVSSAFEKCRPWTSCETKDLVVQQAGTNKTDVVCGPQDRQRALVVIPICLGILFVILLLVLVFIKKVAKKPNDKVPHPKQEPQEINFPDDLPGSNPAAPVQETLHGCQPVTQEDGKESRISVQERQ

No constants are given. Whether binding was seen depends on the method and setting. Some binding calls cover weakened binding; strength is not graded here.

The target of the experiment is HEK293T细胞表达的猴CD40 (猴 (cyno)) (UniProt G7PG38). The experiment in a line: flow cytometry on HEK293T-cynoCD40 cells.

B1: 42D11-8 (antibody, V domains shown)
VH: QVQLKQSGPGLVQPSQSLSITCTVSGFSLTSYGVHWVRQSPGKGLEWLGMIWSGGSTDYNSAFISRLSISKDNFKSQVFFKMNSLQADDTAIYYCARVGGDYWGQGTTVTVSS
VL: DIVITQTPLSLPVSLGDPASISCRSSQSLVHSRGNTYLHWFLQKPGQSPKLLIYKVSNRFSGVPDRFSGSGSGTDFTLRISRLEAEDLGVYFCFQTTHVPWTFGGGTKLEIK
For the molecule B1, the binding entry is given as “binds”.

B2: 31A2-2 (antibody, V domains shown)
VH: QVQLKESGPGLVQPSQSLSITCTVSGFSLTNYSVHWVRQSPGKGLEWLGMIWSGGSTDYNAAFISRLSISKDNFKSQVFFKMNSLQADDTAIYYCARVGGDYWGQGTTVTVSS
VL: DVLMTQTPLSLPVSLGDPASISCRSSQSLLHSRGNTYLHWFLQKPGQSPKLLIYKVSNRFSGVPDRFSGSGSGTDFTLRISRVEAEDLGVYFCFQTTHVPWTFGGGTKLEIK
On to B2, for which the binding entry is “binds”.
